From publication PMC6281644
These are yes or no findings as the source states them, for the method shown. In cells and extracts the contact can be indirect. Some results given as binding are weak or reduced against the parent protein; the word gives no strength.

Amino acid sequences for entries named in this document (tags omitted).
UniProt F4JNA9: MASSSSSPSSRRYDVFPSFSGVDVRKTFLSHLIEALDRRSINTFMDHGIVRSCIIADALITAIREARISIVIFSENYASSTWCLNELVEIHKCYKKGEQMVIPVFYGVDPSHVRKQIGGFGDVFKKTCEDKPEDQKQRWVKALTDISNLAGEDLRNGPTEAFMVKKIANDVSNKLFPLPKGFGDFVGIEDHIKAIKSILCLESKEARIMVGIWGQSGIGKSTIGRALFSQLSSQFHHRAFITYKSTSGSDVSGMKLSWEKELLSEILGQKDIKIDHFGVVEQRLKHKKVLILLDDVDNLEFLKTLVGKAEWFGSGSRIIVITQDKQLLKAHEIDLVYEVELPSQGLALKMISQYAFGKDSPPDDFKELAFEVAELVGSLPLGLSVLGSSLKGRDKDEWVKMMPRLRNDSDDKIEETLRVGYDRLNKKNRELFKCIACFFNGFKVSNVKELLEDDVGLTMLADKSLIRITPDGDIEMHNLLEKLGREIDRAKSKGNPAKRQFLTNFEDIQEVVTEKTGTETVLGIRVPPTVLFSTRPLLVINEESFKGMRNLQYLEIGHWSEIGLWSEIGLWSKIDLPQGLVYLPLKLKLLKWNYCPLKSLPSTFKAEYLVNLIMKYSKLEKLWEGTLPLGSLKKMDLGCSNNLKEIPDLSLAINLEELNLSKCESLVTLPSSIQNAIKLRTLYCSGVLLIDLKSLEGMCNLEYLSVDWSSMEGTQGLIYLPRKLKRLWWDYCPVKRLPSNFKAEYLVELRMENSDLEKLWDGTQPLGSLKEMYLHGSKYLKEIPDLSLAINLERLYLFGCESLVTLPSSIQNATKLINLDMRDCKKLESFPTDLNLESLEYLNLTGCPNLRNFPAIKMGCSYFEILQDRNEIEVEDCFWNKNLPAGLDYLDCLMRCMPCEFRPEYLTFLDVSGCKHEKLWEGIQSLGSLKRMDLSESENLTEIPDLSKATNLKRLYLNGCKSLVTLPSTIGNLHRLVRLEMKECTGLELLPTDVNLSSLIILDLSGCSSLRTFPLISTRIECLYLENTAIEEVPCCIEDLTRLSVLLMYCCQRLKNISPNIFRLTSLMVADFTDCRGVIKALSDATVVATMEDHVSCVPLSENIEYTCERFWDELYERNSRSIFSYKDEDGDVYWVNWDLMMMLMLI

What was measured:
[1] = target: GFP-HaRxL103^Emoy2 (Hyaloperonospora arabidopsidis (isolate Emoy2)); experiment: co-IP; nuclear protein extract of N. benthamiana leaves at 2 dpi; MACS MicroBeads with GFP antibody; washed with nuclei resuspension buffer; blots with anti-GFP and anti-FLAG
[2] = target: GFP-HaRxL103^Emoy2 (Hyaloperonospora arabidopsidis (isolate Emoy2)); experiment: co-IP; cytoplasmic protein extract of N. benthamiana leaves at 2 dpi; MACS MicroBeads with GFP antibody; washed with lysis buffer; blots with anti-GFP and anti-FLAG
[3] = target: GFP-HaRxL103^Emoy2 (Hyaloperonospora arabidopsidis (isolate Emoy2)); experiment: co-IP; extracts of N. benthamiana leaves co-expressing both proteins; immunoprecipitation with MACS MicroBeads with GFP antibody; blots with anti-GFP and anti-FLAG

Measured: binding

RPP4-FLAG (from UniProt F4JNA9 1-1147) (receptor)
binds: all assays above
